Measurements from PMC10329682.
These are yes or no findings as the source states them, for the method shown. In cells and extracts the contact can be indirect. These calls come from enrichment with a bait or labelling near it, and not all partners need be listed. Values belong to the molecule of their own block, whether it stands above or below them.

The chains behind the UniProt entries cited, without tags or fusion partners. Where a name states a change or a piece, a line headed by the entry shows the natural chain unless it says otherwise.
UniProt Q16763: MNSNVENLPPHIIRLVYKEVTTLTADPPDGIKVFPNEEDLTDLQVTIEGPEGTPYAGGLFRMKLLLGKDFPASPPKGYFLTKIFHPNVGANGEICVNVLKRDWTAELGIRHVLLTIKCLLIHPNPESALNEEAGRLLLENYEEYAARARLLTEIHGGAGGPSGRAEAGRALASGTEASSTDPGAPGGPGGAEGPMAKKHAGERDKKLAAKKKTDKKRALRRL
UniProt P19474: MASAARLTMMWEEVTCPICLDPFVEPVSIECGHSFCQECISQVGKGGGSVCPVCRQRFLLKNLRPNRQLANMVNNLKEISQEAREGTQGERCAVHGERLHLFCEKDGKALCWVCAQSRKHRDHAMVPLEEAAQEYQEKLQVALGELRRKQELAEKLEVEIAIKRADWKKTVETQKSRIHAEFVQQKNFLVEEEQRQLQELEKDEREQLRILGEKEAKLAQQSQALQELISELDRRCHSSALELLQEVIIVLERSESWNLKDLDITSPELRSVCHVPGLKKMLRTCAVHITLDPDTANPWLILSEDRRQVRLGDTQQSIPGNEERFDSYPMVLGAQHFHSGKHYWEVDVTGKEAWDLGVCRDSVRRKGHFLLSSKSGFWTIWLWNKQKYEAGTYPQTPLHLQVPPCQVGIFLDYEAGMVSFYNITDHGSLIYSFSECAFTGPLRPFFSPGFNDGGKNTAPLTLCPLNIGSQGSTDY

Biological target: Ubiquitin-conjugating enzyme E2S (human (endogenous in T24 and UM-UC-3)) (UniProt Q16763)
Assay: affinity purification with mass spectrometry; immunoprecipitation with a UBE2S antibody (2 ug, overnight at 4 C) from lysates of wild-type T24 and UM-UC-3 cells, Protein A/G magnetic beads 2 h at room temperature, mass spectrometry; a protein with >=2 unique peptides considered significant

- binding: binds
Molecule: tripartite motif containing 21 (from UniProt P19474 1-475) (enzyme)

- binding: binds
B1: lipoma preferred partner (protein, UniProt Q93052 1-612)
chain: MSHPSWLPPKSTGEPLGHVPARMETTHSFGNPSISVSTQQPPKKFAPVVAPKPKYNPYKQPGGEGDFLPPPPPPLDDSSALPSISGNFPPPPPLDEEAFKVQGNPGGKTLEERRSSLDAEIDSLTSILADLECSSPYKPRPPQSSTGSTASPPVSTPVTGHKRMVIPNQPPLTATKKSTLKPQPAPQAGPIPVAPIGTLKPQPQPVPASYTTASTSSRPTFNVQVKSAQPSPHYMAAPSSGQIYGSGPQGYNTQPVPVSGQCPPPSTRGGMDYAYIPPPGLQPEPGYGYAPNQGRYYEGYYAAGPGYGGRNDSDPTYGQQGHPNTWKREPGYTPPGAGNQNPPGMYPVTGPKKTYITDPVSAPCAPPLQPKGGHSGQLGPSSVAPSFRPEDELEHLTKKMLYDMENPPADEYFGRCARCGENVVGEGTGCTAMDQVFHVDCFTCIICNNKLRGQPFYAVEKKAYCEPCYINTLEQCNVCSKPIMERILRATGKAYHPHCFTCVMCHRSLDGIPFTVDAGGLIHCIEDFHKKFAPRCSVCKEPIMPAPGQEETVRIVALDRDFHVHCYRCEDCGGLLSEGDNQGCYPLDGHILCKTCNSARIRVLTAKASTDL
